In PubChem BioAssay AID1439 (NMMLSC, 2008):
Hit rate of the full screen: of about 220,000 compounds, about 770 (0.35%) were called active. Inconclusive means that the source gave no clear call. Such entries were picked first, then a sample of the others. No stated cut-off is given here; in the data, active means binding response below about 49% or above about 150%; inconclusive means no clear call, values can overlap the other calls; inactive means in between.

Protein sequences, listed by entry. Tags and fused reporters are not part of them.
UniProt P09471, whole entry, looked up: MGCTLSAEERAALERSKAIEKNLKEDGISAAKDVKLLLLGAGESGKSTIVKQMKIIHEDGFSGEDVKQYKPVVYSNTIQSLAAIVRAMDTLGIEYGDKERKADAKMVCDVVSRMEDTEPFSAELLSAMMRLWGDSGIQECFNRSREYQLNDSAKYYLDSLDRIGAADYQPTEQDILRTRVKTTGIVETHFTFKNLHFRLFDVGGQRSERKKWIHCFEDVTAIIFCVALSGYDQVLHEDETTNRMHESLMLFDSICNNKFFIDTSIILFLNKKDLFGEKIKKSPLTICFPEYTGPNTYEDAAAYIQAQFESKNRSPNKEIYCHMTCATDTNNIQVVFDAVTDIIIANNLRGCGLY

The compounds below were run against Guanine nucleotide-binding protein G(o) subunit alpha (Homo sapiens) (UniProt P09471) (assay: RGS7-Galphao binding modulators, primary screen, biochemical, multiplexed bead flow cytometry (AID 1439;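 further: fluorescent Galphao held in activated GDP-AlF4 state binding bead-coupled RGS7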)). Conditions: at 10 µM, actives lie on both sides.
For COc1ccc(Oc2ccc(/C=C/C(=O)c3cccc(OC)c3)cc2[N+](=O)[O-])cc1, the binding response (% of control) was inactive: 102%.
For COc1ccc(C(=O)N/C(=C/c2cccnc2)C(=O)NCc2ccco2)cc1OC, the binding response (% of control) was inconclusive: 92.1%.
With Oc1ccc(/C=N/NC(=S)N2CCOCC2)cc1 the binding response (% of control) was inconclusive: 108%.
NC(=S)Nc1ccc(C(F)(F)F)cc1Cl was tested, and the binding response (% of control) was inconclusive: 127%.
CCN(CC)c1ccc(N)cc1S(=O)(=O)Nc1ccc(OC)cc1 was tested, and the binding response (% of control) was inconclusive: 69.2%.
Cn1c(=O)cc(C(=O)N/N=C/c2ccc(F)cc2)[nH]c1=O was tested, and the binding response (% of control) was inconclusive: 103%.
For CCn1c2ccccc2c2nnc(SCC(=O)c3c(N)n(C)c(=O)n(C)c3=O)nc21, the binding response (% of control) was inconclusive: 73%.
For Cn1nnc(NC(=O)COc2ccc(C3CCCCC3)cc2)n1, the binding response (% of control) was inactive: 101%.
For CCN(CC)CCNc1nc2nonc2nc1NCCN(CC)CC, the binding response (% of control) was inconclusive: 99.3%.
Cc1onc(NC(=O)CSCC(=O)O)c1Br was tested, and the binding response (% of control) was inconclusive: 83.5%.
O=C(O)CCNC1CCCCC1 was tested, and the binding response (% of control) was inconclusive: 94.9%.
In the case of COc1cccc(NC(=S)N(Cc2ccc(C)cc2)Cc2ccccn2)c1, the binding response (% of control) is reported as inconclusive: 107%.
For COc1ccc(N2C(=O)CC(NNC(=O)c3cc(C)oc3C)C2=O)cc1 (centres undefined), the binding response (% of control) was inconclusive: 102%.
For Cc1ccc(S(=O)(=O)NCC(=O)NCC(=O)OC(C(=O)NC(N)=O)C(C)C)cc1C (centres undefined), the binding response (% of control) was inconclusive: 109%.
In the case of CC(=O)/C(N=Nc1nc2c([nH]1)c(=O)n(C)c(=O)n2C)=C(\C)O, the binding response (% of control) is reported as inconclusive: 31.4%.
For CCCCc1ccc(NC(=O)C(=O)NCCN2CCN(Cc3ccc([N+](=O)[O-])cc3)CC2)cc1, the binding response (% of control) was inactive: 105%.
With COc1ccc(CCN2CC(C(=O)Nc3cccc(C(C)=O)c3)CC2=O)cc1OC (centres undefined) the binding response (% of control) was inconclusive: 110%.
With NC(=O)c1ccc(-c2csnn2)cc1 the binding response (% of control) was inconclusive: 96.8%.
In the case of CC1=CC2=NC(=O)CC(C)(C(=O)N(CC(=O)NC3CCCC3)c3ccccc3C)N2C=C1 (centres undefined), the binding response (% of control) is reported as inconclusive: 88.6%.
With FC(F)(F)c1cc(-c2ccccc2)nc(NC2CCCC2)n1 the binding response (% of control) was inactive: 107%.
With COc1ccc(-c2nn(-c3ccccc3)cc2C2CC(c3cccs3)=NN2C(=O)CCC(=O)O)cc1 (centres undefined) the binding response (% of control) was inconclusive: 90.3%.
With CCn1ncc(C2=NOC(C(=O)Nc3cccc(O)c3)C2)c1C (centres undefined) the binding response (% of control) was inactive: 94.9%.
In the case of Cc1ccc(/C(N)=N/OC(=O)c2cccc(Cn3cc(C(F)(F)F)ccc3=O)c2)cc1, the binding response (% of control) is reported as inconclusive: 67.8%.
With O=C(CN1C(=O)NC(c2ccccc2)(c2ccccc2)C1=O)c1c[nH]c2ccccc12 the binding response (% of control) was inconclusive: 118%.
With C(=C\c1ccccc1)/C=N/Nc1ccc2nncn2n1 the binding response (% of control) was inconclusive: 78.9%.
For O=C(c1ccc2c(c1)OCO2)N1CCC2(CC1)Oc1ccc(F)cc1C(=O)C21CC(c2ccccc2)=NO1 (centres undefined), the binding response (% of control) was inconclusive: 99%.
For CC(=O)Nc1ccc(OCc2ccc(S(=O)(=O)Cc3ccccc3)cc2)cc1, the binding response (% of control) was inconclusive: 108%.
For Cc1onc(-c2ccccc2)c1C(=O)Oc1ccccc1, the binding response (% of control) was inconclusive: 60.7%.
For Cc1nn(CC(=O)N/N=C/c2cccs2)c(C)c1[N+](=O)[O-], the binding response (% of control) was inconclusive: 107%.
O=C(Nc1ccc(F)cc1F)Nc1csc2ccccc12 was tested, and the binding response (% of control) was inconclusive: 70.1%.
For Cc1ccc(C)c(N2CCN(C(=O)c3cccn4c(=O)c5sccc5nc34)CC2)c1, the binding response (% of control) was inconclusive: 94.4%.
With COc1cccc(C(=O)c2c(C)c(CCC#N)n3ccccc23)c1OC the binding response (% of control) was inconclusive: 97.5%.
With CC(C)(C)c1ccc(/C=C2/SC(N3CCCC3)=NC2=O)cc1 the binding response (% of control) was inconclusive: -203%.
For O=C(Nc1ccc2c(c1)nc1n2CCN(C2CCCCC2)C1)c1ccco1, the binding response (% of control) was inconclusive: 42.4%.
In the case of O=C(/C=C/c1ccccc1[N+](=O)[O-])NCc1ccccc1Cl, the binding response (% of control) is reported as inconclusive: 118%.
In the case of COc1ccc2[nH]cc(CCNS(=O)(=O)c3ccc(C)cc3)c2c1, the binding response (% of control) is reported as inconclusive: 98.9%.
N#C/C(=C\c1ccccc1)C(=O)Nc1cccnc1 was tested, and the binding response (% of control) was inconclusive: 129%.
Cc1cc(NC(=O)CSc2nc3ccccc3n2CCC#N)no1 was tested, and the binding response (% of control) was inconclusive: 101%.
With COC(=O)c1nc(-c2ccccc2)oc1N1CCOCC1 the binding response (% of control) was inconclusive: 78.4%.
Clc1ccc(C2=NOC(c3nnc(-c4ccccc4)o3)C2)cc1 (centres undefined) was tested, and the binding response (% of control) was inconclusive: 49.1%.
For CC1CCC(NC(=O)C2CCC(CNc3c(N4CCCCC4)c(=O)c3=O)CC2)CC1 (centres undefined), the binding response (% of control) was inconclusive: 104%.
CC(C)(C)NC(=O)NC(=O)COC(=O)c1cc[n+]([O-])cc1 was tested, and the binding response (% of control) was active: 212% [activator].
For CS(=O)(=O)N(Cc1ccc(Cl)cc1)c1ccc(C(=O)NCc2ccccn2)cc1, the binding response (% of control) was inconclusive: 86.5%.
In the case of Cc1nn(C)c(C(=O)NC2C3CC4CC(C3)CC2C4)c1Cl (centres undefined), the binding response (% of control) is reported as inactive: 87%.
With O=C(N/N=C/c1cc2c3c(c1O)CCCN3CCC2)c1ccccc1O the binding response (% of control) was active: 14.8%.
With COc1cccc(-c2cc(C(=O)Nc3cccc(O)c3)no2)c1 the binding response (% of control) was inactive: 97%.
For Cc1noc(/C=C/c2nn(C)cc2Cl)c1[N+](=O)[O-], the binding response (% of control) was inconclusive: 99.9%.
For CC(=O)NNS(=O)(=O)c1ccc(-c2cc(C(F)(F)F)n(C)n2)s1, the binding response (% of control) was inconclusive: 125%.
With C=CCNC(=O)NC(=O)c1csc([N+](=O)[O-])c1 the binding response (% of control) was inconclusive: 131%.
With O=C(CN1C(=O)NC2(CCCCCC2)C1=O)N1CCN(S(=O)(=O)c2ccc(Cl)cc2)CC1 the binding response (% of control) was inactive: 107%.
In the case of O=C(O)c1cc(NCc2ccc(F)cc2)ccc1N1CCOCC1, the binding response (% of control) is reported as inactive: 99.7%.
With Cc1[nH]n(-c2ccccc2)c(=O)c1C=Nc1ccc(S(N)(=O)=O)cc1 the binding response (% of control) was inconclusive: 98.3%.
For Cc1ccnc2nc(C(=O)Nc3nc(-c4ccccn4)cs3)nn12, the binding response (% of control) was inconclusive: 54%.
In the case of CCCN(Cc1cc(=O)[nH]c2ccccc12)C(=O)CC, the binding response (% of control) is reported as inconclusive: 177%.
With CCN(CC)S(=O)(=O)c1ccc2c(c1)N(CC(=O)NCc1ccccn1)C(=O)CO2 the binding response (% of control) was inconclusive: 105%.
With Cc1cc(NC(=O)COC(=O)c2ccccc2S(=O)(=O)N(C)c2ccccc2)no1 the binding response (% of control) was inconclusive: 100%.
In the case of COC(=O)c1ccc(Cl)cc1NC(=O)/C=C/c1ccc(C)o1, the binding response (% of control) is reported as inactive: 98.5%.
For CCNC(=S)Nc1cccc(S(=O)(=O)Nc2ccccc2OC)c1, the binding response (% of control) was inconclusive: 114%.
With O=C(NCc1ccc[n+](CCCCS(=O)(=O)[O-])c1)c1ccc(OC(F)F)cc1 the binding response (% of control) was inconclusive: 117%.
With COc1ccccc1CNC(=O)C1=CCN(S(=O)(=O)c2ccc(C)cc2)CC1 the binding response (% of control) was inconclusive: 101%.
For Fc1cccc(Cc2noc(CN3CCCN(C4Cc5ccccc5C4)CC3)n2)c1, the binding response (% of control) was inactive: 94.5%.
In the case of CC(C)OP(=O)(CCP(=O)(OC(C)C)OC(C)C)OC(C)C, the binding response (% of control) is reported as inconclusive: 104%.
For CCC(C)[C@H](NC(=O)N1CCCCCC1)C(=O)OC (some centres undefined), the binding response (% of control) was inconclusive: 113%.
For COC(=O)c1c(C)noc1-c1snnc1C, the binding response (% of control) was inconclusive: 90.6%.
In the case of COc1ccc(N(CC(=O)Nc2cc(C)on2)S(=O)(=O)c2cc(C)ccc2C)cc1, the binding response (% of control) is reported as inactive: 99.1%.
For O=C1CC(c2c(F)cccc2Cl)C(n2cncn2)C(O)=C1C1NCCc2ccccc21 (centres undefined), the binding response (% of control) was inconclusive: 103%.
CCOC(=O)C1CCCN(C(=O)c2csc(-c3ccc4c(c3)CCO4)n2)C1 (centres undefined) was tested, and the binding response (% of control) was inconclusive: 97.6%.
With CCOC(=O)c1csc(-c2sccc2Br)n1 the binding response (% of control) was inconclusive: -21.5%.
With CC1(C)CC(=O)C=C(NCCN2CCN(C(=S)Nc3ccccc3)CC2)C1 the binding response (% of control) was inconclusive: 103%.
For CNC(=O)OCCSCCS(=O)(=O)c1ccc(Cl)cc1, the binding response (% of control) was inconclusive: -12.7%.
With Cc1ccc(/C(=C\CN2CCCC2)c2ccccn2)cc1 the binding response (% of control) was inconclusive: 110%.
CCOC(=O)c1sc(N(Cc2ccccc2)C(=O)COC(=O)c2cnccn2)nc1C was tested, and the binding response (% of control) was inconclusive: 110%.
With O=c1cc(O)nc(-c2ccc(Cl)cc2)s1 the binding response (% of control) was inactive: 104%.
With COc1ccc(CC(=O)n2[nH]c(=O)c3ccccc3c2=O)cc1OC the binding response (% of control) was inconclusive: 119%.
In the case of S=C(Nc1ccccc1)N1CCOCCOCCN(C(=S)Nc2ccccc2)CCOCCOCC1, the binding response (% of control) is reported as inconclusive: 110%.
With CCOC(=O)Cc1csc(NC(=O)Nc2cccc(OC)c2)n1 the binding response (% of control) was inconclusive: 122%.
In the case of CC(C)c1nc2sc3ccccc3c(=O)c2c(=O)n1Cc1ccccc1, the binding response (% of control) is reported as inconclusive: 213%.
CN(C)CCCn1c(SCC(=O)Nc2nc(-c3cccc(Br)c3)cs2)nc2ccccc2c1=O was tested, and the binding response (% of control) was inconclusive: 107%.
For CCn1c(=O)c(C(=O)CN2CCN(S(=O)(=O)c3cc(C)ccc3C)CC2)c(N)n(Cc2ccccc2)c1=O, the binding response (% of control) was inactive: 92.6%.
With O=C1OC(/C=C/c2ccc(Cl)cc2)=NC/1=C/c1ccco1 the binding response (% of control) was inactive: 99.6%.
With O=C1CSc2ccc(C(=O)Nc3cccc(S(=O)(=O)Nc4ccc(Br)cc4)c3)cc2N1 the binding response (% of control) was inactive: 96.3%.
In the case of C/C(=N\NC(=O)Cc1csc(N2CCOCC2)n1)c1ccc(Cl)c(Cl)c1, the binding response (% of control) is reported as inconclusive: 98.3%.
For COCc1cc(=O)[nH]c(SC)n1, the binding response (% of control) was inconclusive: 87.2%.
For COc1ccc(C(=O)O)cc1S(=O)(=O)NCCN(C)C, the binding response (% of control) was inconclusive: 81.3%.
In the case of CC1=NN(c2ccccc2)C(=O)/C1=C/c1cc(C)n(C2CC2)c1C, the binding response (% of control) is reported as inconclusive: 85.9%.
C=CCN(c1ccc(C(=O)Nc2ccc(NC(C)=O)cc2)cc1)S(C)(=O)=O was tested, and the binding response (% of control) was inactive: 106%.
For CCN(CC)S(=O)(=O)c1ccc(C(=O)N(c2ccc(C)cc2)C2C=CS(=O)(=O)C2)cc1 (centres undefined), the binding response (% of control) was inconclusive: 112%.
With COc1ccc(Br)c(OC)c1C(=O)NC(=O)Nc1nc(C)cc(C)n1 the binding response (% of control) was inconclusive: 93.2%.
O=C(O)CC12CC3CC(C1)CC(n1ncc(NCc4ccc(F)cc4)c(Cl)c1=O)(C3)C2 was tested, and the binding response (% of control) was inconclusive: 89.6%.
